Test results: US6156724A (priority 1998, dated 2000)
“And” between values parts separate entries of the source, which are not always exact repeats. Equal values may be shown once. Numbered stars: 1 amine (or outer) side, 2 acyl side, 3 side chain; on linkers, the order of the positions; unused ones are H or OH. Bridge positions count the residues as written; N and C are the ends. Square brackets hold non-standard residues; d marks the D form. Peptide text beside a SMILES is read from it. * marks the point of attachment. X1 = CC[C@H](C)[C@@H](N[*:1])[C@@H](O)CC(=O)O[C@H](C(=O)[C@H](C)C(=O)[*:2])C(C)C; NMeY = CN[C@@H](Cc1ccc(O)cc1)C(=O)O; dNMeL = CN[C@H](CC(C)C)C(=O)O; pGlu = O=C1CC[C@@H](C(=O)O)N1; Isobutyryl = CC(C)C(=O)*; Lac = C[C@H](O)C(=O)O; Propionyl = CCC(=O)*

Columns and labels:
[1] = tested on: Balb/c splenocytes (resting lymphocytes); assay: Lymphocyte viability (LcV) assay; type: cell-based, murine; settings: therapeutic index
Protocol: Forty two (42) didemnin compounds (see Table 1) were evaluated for cytotoxicity to one of the lymphocyte populations in the MLR (i.e., Balb/c splenocytes). The purpose of the lymphocyte viability assay (LcV) is to measure metabolic activity in lymphocytes after they have been exposed to the compounds for the duration of an under conditions equivalent to the MLR. The inverse of the data yields cytotoxicity information about the compounds on murine lymphocytes. The rationale of using resting cells, in this case unstimulated lymphocytes, to measure cytotoxicity has a strategic importance. In the MLR the heterogenous cell populations are predominantly resting cells when the assay begins.
Test compounds were prepared in two sets as described above. Splenocytes were prepared as described previously from one murine strain (Balb/c), and a volume of 200 μL of the cell suspension was added to one set of test compounds and control wells.
Assay plates were incubated as in the MLR and then pulsed overnight 75 μL per well MTT-thiazolyl blue solution (150 μg). The plates were decanted and the resulting insoluble formazan crystals were dissolved in 200 μL of isopropyl alcohol. Absorbance at 570 nm was measured.
The LcV data were calculated as a percentage of basal metabolic activity, or percent viability, relative to BALB/c control, and an LC50 value was interpolated for each test compound.

[2] = tested on: concanavalin A-induced lymphoblasts (Con A splenocytes); assay: Lymphoblast viability (LbV) assay; settings: therapeutic index
[3] = general procedure: solution-phase peptide synthesis; EDC/HOBT; DCC

Question: What does the source list for `CCC(=O)N1CCC[C@H]1C(=O)N(C)[C@H](CC(C)C)C(=O)N[C@@H]1C(=O)N[C@H]([C@@H](C)CC)[C@@H](O)CC(=O)O[C@@H](C(C)C)C(=O)[C@H](C)C(=O)N[C@@H](CC(C)C)C(=O)N2CCC[C@H]2C(=O)N(C)[C@@H](Cc2ccc(OC)cc2)C(=O)O[C@@H]1C` [Compound 32, [Propionyl^9]Didemnin B] (Propionyl-P[dNMeL]T[X1]LP[NMeY](Me); ester 3-C)?
Answer: ratio LcV (LC50)/MLR (IC50) [1]: 8,500; ratio LbV (LC50)/MLR (IC50) [2]: 1

Question: With `CC[C@H](C)[C@H]1NC(=O)[C@@H](NC(=O)[C@@H](CC(C)C)N(C)C(=O)[C@@H]2CCCN2C(=O)C(C)C)[C@@H](C)OC(=O)[C@H](Cc2ccc(OC)cc2)N(C)C(=O)[C@@H]2CCCN2C(=O)[C@H](CC(C)C)NC(=O)[C@@H](C)C(=O)[C@H](C(C)C)OC(=O)C[C@@H]1O` [Compound 33, [Isobutyryl^9]Didemnin B] (Isobutyryl-P[dNMeL]T[X1]LP[NMeY](Me); ester 3-C) as the compound, how does the “ratio LcV (LC50)/MLR (IC50)” value [1] read?
Answer: 60,000

Question: And the “ratio LbV (LC50)/MLR (IC50)” value [2]?
Answer: 6

Question: With `CC[C@H](C)[C@H]1NC(=O)[C@@H](NC(=O)[C@@H](CC(C)C)N(C)C(=O)[C@H]2CCCN2C(=O)C(C)C)[C@@H](C)OC(=O)[C@H](Cc2ccc(OC)cc2)N(C)C(=O)[C@@H]2CCCN2C(=O)[C@H](CC(C)C)NC(=O)[C@@H](C)C(=O)[C@H](C(C)C)OC(=O)C[C@@H]1O` [Compound 34, [Isobutyryl^9, D-Pro^8] Didemnin B] (Isobutyryl-[dP][dNMeL]T[X1]LP[NMeY](Me); ester 3-C) as the compound, how does the “ratio LcV (LC50)/MLR (IC50)” value [1] read?
Answer: 9,000

Question: And the “ratio LbV (LC50)/MLR (IC50)” value [2]?
Answer: 8

Question: Which results are given for `CC[C@H](C)[C@H]1NC(=O)[C@@H](NC(=O)[C@@H](CC(C)C)N(C)C(=O)[C@H](C)NC(=O)[C@H](C)O)[C@@H](C)OC(=O)[C@H](Cc2ccc(OC)cc2)N(C)C(=O)[C@@H]2CCCN2C(=O)[C@H](CC(C)C)NC(=O)[C@@H](C)C(=O)[C@H](C(C)C)OC(=O)C[C@@H]1O` [Compound 35, [L-Ala^8]Didemnin B]?
Answer: ratio LcV (LC50)/MLR (IC50) [1]: > 30,000; ratio LbV (LC50)/MLR (IC50) [2]: 2

Question: For `CC[C@H](C)[C@H]1NC(=O)[C@@H](NC(=O)[C@@H](CC(C)C)N(C)C(=O)[C@@H]2CCCN2C(=O)[C@H](C)OC(=O)[C@@H]2CCC(=O)N2)[C@@H](C)OC(=O)[C@H](Cc2ccc(OC)cc2)N(C)C(=O)[C@@H]2CCCN2C(=O)[C@H](CC(C)C)NC(=O)[C@@H](C)C(=O)[C@H](C(C)C)OC(=O)C[C@@H]1O` [Compound 37, O-Pyroglutamyldidemnin B] ([pGlu][Lac]P[dNMeL]T[X1]LP[NMeY](Me); ester 5-C), which “ratio LcV (LC50)/MLR (IC50)” value [1] is on record?
Answer: > 1,500,000 and 1,500,000

Question: And the “ratio LbV (LC50)/MLR (IC50)” value [2]?
Answer: 15

Question: Which “ratio LcV (LC50)/MLR (IC50)” value [1] does the source give for `CC[C@H](C)[C@H]1NC(=O)[C@@H](NC(=O)[C@@H](CC(C)C)N(C)C(=O)[C@@H]2CCCN2C(=O)[C@H](C)OC(=O)[C@H](CCC(N)=O)NC(=O)[C@@H]2CCC(=O)N2)[C@@H](C)OC(=O)[C@H](Cc2ccc(OC)cc2)N(C)C(=O)[C@@H]2CCCN2C(=O)[C@H](CC(C)C)NC(=O)[C@@H](C)C(=O)[C@H](C(C)C)OC(=O)C[C@@H]1O` [Compound 38, Didemnin M] ([pGlu]Q[Lac]P[dNMeL]T[X1]LP[NMeY](Me); ester 6-C) here?
Answer: > 10,000,000

Question: And the “ratio LbV (LC50)/MLR (IC50)” value [2]?
Answer: 326

Question: With `CC[C@H](C)[C@H]1NC(=O)[C@@H](NC(=O)[C@@H](CC(C)C)N(C)C(=O)[C@@H]2CCCN2C(=O)[C@H](C)OC(=O)[C@H](CCC(N)=O)NC(=O)[C@H](CCC(N)=O)NC(=O)[C@@H]2CCC(=O)N2)[C@@H](C)OC(=O)[C@H](Cc2ccc(OC)cc2)N(C)C(=O)[C@@H]2CCCN2C(=O)[C@H](CC(C)C)NC(=O)[C@@H](C)C(=O)[C@H](C(C)C)OC(=O)C[C@@H]1O` [Compound 39, Didemnin E] ([pGlu]QQ[Lac]P[dNMeL]T[X1]LP[NMeY](Me); ester 7-C) as the compound, how does the “ratio LcV (LC50)/MLR (IC50)” value [1] read?
Answer: > 800,000

Question: And the “ratio LbV (LC50)/MLR (IC50)” value [2]?
Answer: 169

Question: What does the source list for `CC[C@H](C)[C@H]1NC(=O)[C@@H](NC(=O)[C@@H](CC(C)C)N(C)C(=O)[C@@H]2CCCN2C(=O)[C@H](C)OC(=O)[C@H](CCC(N)=O)NC(=O)[C@H](CCC(N)=O)NC(=O)[C@H](CCC(N)=O)NC(=O)[C@@H]2CCC(=O)N2)[C@@H](C)OC(=O)[C@H](Cc2ccc(OC)cc2)N(C)C(=O)[C@@H]2CCCN2C(=O)[C@H](CC(C)C)NC(=O)[C@@H](C)C(=O)[C@H](C(C)C)OC(=O)C[C@@H]1O` [Compound 40, Didemnin D] ([pGlu]QQQ[Lac]P[dNMeL]T[X1]LP[NMeY](Me); ester 8-C)?
Answer: ratio LcV (LC50)/MLR (IC50) [1]: > 50,000; ratio LbV (LC50)/MLR (IC50) [2]: 7

Question: With Didemnin X [Compound 41] as the compound, how does the “ratio LcV (LC50)/MLR (IC50)” value [1] read?
Answer: > 2,000

Question: What about the “ratio LbV (LC50)/MLR (IC50)” value [2] of the same compound?
Answer: 6

Question: Which results are given for Didemnin Y [Compound 42]?
Answer: ratio LcV (LC50)/MLR (IC50) [1]: > 11,000; ratio LbV (LC50)/MLR (IC50) [2]: 2

Question: With “Z-D-MeLeu-Thr-{O-[Boc-(3S,4R,5R)Ist-O-Hip-Leu-Pro-Me2 Tyr]}-OTMSe” as the compound, how does the step yield ([3]; coupling step) read?
Answer: 50%

Question: Which step yield ([3]; coupling step) does the source give for “Z-D-MeLeu-Thr-{O-[Boc-(3S,4S,5S)Ist-O-Hip-Leu-Pro-Me2 Tyr]}-OTMSe” here?
Answer: 50%

Question: With [Acetyl^9 ]Didemnin B as the compound, how does the step yield ([3]; coupling step) read?
Answer: 88%

Question: Which step yield ([3]; late stage modification step) does the source give for [D-Pro^8 ]Didemnin B here?
Answer: 97%

Question: With [H6 -N-MePhe^6 ]Didemnin B as the compound, how does the step yield ([3]; late stage modification step) read?
Answer: 32%

Question: With [H6 Me2 Tyr6 ]Didemnin B as the compound, how does the step yield ([3]; late stage modification step) read?
Answer: 20%

Question: For [Hip^3 oxime]Didemnin B, which step yield ([3]; late stage modification step) is on record?
Answer: 47%

Question: With [Isobutyryl^9 ]Didemnin B as the compound, how does the step yield ([3]; coupling step) read?
Answer: 28%

Question: For [Isobutyryl^9, D-Pro^8 ] Didemnin B, which step yield ([3]; coupling step) is on record?
Answer: 42%

Question: With [L-Ala^8 ]Didemnin B as the compound, how does the step yield ([3]; late stage modification step) read?
Answer: 97%

Question: For [Propionyl^9 ]Didemnin B, which step yield ([3]; coupling step) is on record?
Answer: 93%
